Results published in publication doi:10.1101/2020.07.05.188557.
These are yes or no findings as the source states them, for the method shown. In cells and extracts the contact can be indirect. For some assays here: Binding can be weak; no strength is given.

What was measured:
Assay in all cases: split reporter
[1] = target: ssy1-6TM-Cub-GST (S. cerevisiae)
[2] = target: agp1-12TM-Cub-GST (S. cerevisiae)
[3] = target: hxt1-4TM-Cub-GST (S. cerevisiae)
[4] = target: hxt1-10TM-Cub-GST (S. cerevisiae)
[5] = target: can1-10TM-Cub-GST (S. cerevisiae)
[6] = target: agp1-4TM-Cub-GST (S. cerevisiae)
[7] = target: can1-8TM-Cub-GST (S. cerevisiae)
[8] = target: gap1-10TM-Cub-GST (S. cerevisiae)
[9] = target: ssy1-2TM-Cub-GST (S. cerevisiae)
[10] = target: hxt1-8TM-Cub-GST (S. cerevisiae)
[11] = target: gap1-4TM-Cub-GST (S. cerevisiae)
[12] = target: agp1-10TM-Cub-GST (S. cerevisiae)
[13] = target: ssy1-8TM-Cub-GST (S. cerevisiae)
[14] = target: gal2-12TM-Cub-GST (S. cerevisiae)
[15] = target: gal2-4TM-Cub-GST (S. cerevisiae)
[16] = target: ssy1-12TM-Cub-GST (S. cerevisiae)
[17] = target: gal2-10TM-Cub-GST (S. cerevisiae)

binding [1]: binds | binding [2]: binds weakly | binding [3]: no binding | binding [4]: no binding | binding [5]: binds | binding [6]: binds | binding [7]: binds | binding [8]: binds | binding [9]: binds | binding [10]: no binding | binding [11]: binds | binding [12]: binds | binding [13]: binds | binding [14]: no binding | binding [15]: no binding | binding [16]: binds | binding [17]: no binding
B1: Shr3-NubA (protein, UniProt Q02774 1-210)
chain: MFSYSDFCSIGTAMILSATTFLMGVFFSNMPYDYHLLFNPNSTQEHFDLALRHYQILHETPLPVIVTLCVVAGIGLVGGTIKVFKPNPELQMFEYCSLGLYVLAICVFLTNVKTGIDCSVSHNWGEVTENQGLAVIASSNIILLVMFAGVIILQIGLWYSNWDLQKRLKEFYAQEEREAANAGKKTEKVDNAKKNDNKSKGAQKRKNAKK
